In PMC7819943, “Rice protein-binding microarrays: a tool to detect cis-acting elements near promoter regions in rice”:
This is one part of the list.

Each sequence was assayed against T1, OsSMF1 (Oryza sativa, UniProt Q6ZLB0 1-436) (assay: protein-binding microarray (RPBM); PBS, 2% BSA, 51.3 ng/ul salmon testes DNA, 50 uM zinc acetate, 200 nM TF, 25 C, 1 h; high values mean tight binding). Conditions: protein: recombinant; tags: N-terminal polyhistidine and DsRed monomer fusion (pET32a); chain copies: 2; label: CyDye5-dUTP incorporated in the synthesized complementary strand; 3' TTTTT single-stranded linker to array surface; dsDNA, one strand shown.
T1 sequence: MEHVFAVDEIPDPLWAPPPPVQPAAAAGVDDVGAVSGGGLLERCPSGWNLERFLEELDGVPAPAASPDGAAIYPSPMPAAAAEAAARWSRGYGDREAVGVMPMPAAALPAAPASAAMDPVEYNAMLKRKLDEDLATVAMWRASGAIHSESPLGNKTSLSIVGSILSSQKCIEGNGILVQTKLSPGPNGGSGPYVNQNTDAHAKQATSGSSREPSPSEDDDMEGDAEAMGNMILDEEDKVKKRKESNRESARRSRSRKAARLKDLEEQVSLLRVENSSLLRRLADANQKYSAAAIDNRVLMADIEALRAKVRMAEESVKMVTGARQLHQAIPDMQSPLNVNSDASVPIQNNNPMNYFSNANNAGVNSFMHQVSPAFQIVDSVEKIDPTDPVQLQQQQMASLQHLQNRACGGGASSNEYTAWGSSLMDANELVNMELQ
Summary of the method: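 Transcription factors were each fused at the N-terminus to a polyhistidine tag plus DsRed and expressed in E. coli BL21-CodonPlus before Ni–NTA purification. Binding to a double-stranded custom Agilent array was carried out with 200 nM protein at 25 °C for 1 h in PBS, 2% BSA, salmon testes DNA and 50 µM zinc acetate. The binding signal is per-feature fluorescence intensity, in arbitrary units, on an Axon 4000B scanner.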

In order of falling binding signal:
1. GGCGCCGTGCCGTAATCCATCTCCTCCGTCGTCCAACCTCCGGAGTCACCTAGTGCAG  44900 fluorescence intensity (a.u.)
2. CAACCGCCGTCCTCCCGCCGCCTCCATTTCTTTAGCGGTTCGGAGTCACCTAGTGCAG  34400 fluorescence intensity (a.u.)
3. AGCGACTCGTGTAGTTGCCACGTCAGCTTAAACTGGATGCCGGAGTCACCTAGTGCAG  32900 fluorescence intensity (a.u.)
4. AAGAAAACTACGCTATACATATATAAAATTTACAATGTAACGGAGTCACCTAGTGCAG  32300 fluorescence intensity (a.u.)
5. ACAATTGGATGAACACATCTTGTGTTCAAACAAATATATTCGGAGTCACCTAGTGCAG  31800 fluorescence intensity (a.u.)
6. AGATCTGAAGGGCTCATGTTTTCCGAGCTGCCACGTCATCCGGAGTCACCTAGTGCAG  31000 fluorescence intensity (a.u.)
7. CGTCTCATTCTCTCTCCACATTTCCTTTTGATCCCTTCTCCGGAGTCACCTAGTGCAG  24300 fluorescence intensity (a.u.)
8. ACCCGCTGATTGATTGATTGGTTTGTCTTGGTCGTTGGCTCGGAGTCACCTAGTGCAG  20500 fluorescence intensity (a.u.)
9. AACCCCAACTCGCCACGTGGGCAGTGTGGCCTCACAGGAACGGAGTCACCTAGTGCAG  16400 fluorescence intensity (a.u.)
10. AGGTCTCACACTCCAAGCTCGCGCCACGTGTACGGCGAGACGGAGTCACCTAGTGCAG  11000 fluorescence intensity (a.u.)
11. TAGATTACATCACGGCTGACGTGTACTTTGTCCGGGAGACCGGAGTCACCTAGTGCAG  10500 fluorescence intensity (a.u.)
12. AGTCATGCTATGAGGTGGTCAGGTGGACACTGTAGTATACCGGAGTCACCTAGTGCAG  10100 fluorescence intensity (a.u.)
13. GTTAATGGAGGTATGGAAATTTGTGACACGTCTCCAAATGCGGAGTCACCTAGTGCAG  7660 fluorescence intensity (a.u.)
14. ATTTCCCTATCAATGATGACGTGTTGAATGCACTGATTTGCGGAGTCACCTAGTGCAG  7620 fluorescence intensity (a.u.)
15. CCATGACGACCGGAACACGTATGCTGCACCCATGCCTCCACGGAGTCACCTAGTGCAG  7600 fluorescence intensity (a.u.)
16. CCCTCCATGTCAGTCGCCTCATCCACTCCCACGTGGGCCCCGGAGTCACCTAGTGCAG  6920 fluorescence intensity (a.u.)
17. GTGTTCGGACAATAGATGACGTGACCTGTGTCACGGTGTTCGGAGTCACCTAGTGCAG  6840 fluorescence intensity (a.u.)
18. GCTCTCCCGCCCCTCCCTTCTCCGGCGATCCATCCGCCGCCGGAGTCACCTAGTGCAG  5890 fluorescence intensity (a.u.)
19. CACACCAAAAGATCATGTGTGTGTCACCACCTGCAAATCTCGGAGTCACCTAGTGCAG  5830 fluorescence intensity (a.u.)
20. AAAACGGGGATCTACTGACAGGTCACACAGCTCGCAGCAACGGAGTCACCTAGTGCAG  5730 fluorescence intensity (a.u.)
21. AATTATATTTCTTACTTTGTCATCAGTGACGGGTCGTAAGCGGAGTCACCTAGTGCAG  4790 fluorescence intensity (a.u.)
22. GGGGCTTGGAGTGACGTTTGCTACTACTGACGGATTTTCACGGAGTCACCTAGTGCAG  4710 fluorescence intensity (a.u.)
23. GATGATGGTGGTGTCCTTGCCGCGTCCTCTCTTCCATACCCGGAGTCACCTAGTGCAG  4580 fluorescence intensity (a.u.)
24. TTTAAAACCAGGTGGGCCCAGCGTGGCGCCTACACACCGCCGGAGTCACCTAGTGCAG  4410 fluorescence intensity (a.u.)
25. ATCTTGTCCCACTTGTCATACACACATTGTGACTTGGAGCCGGAGTCACCTAGTGCAG  4120 fluorescence intensity (a.u.)
26. CAGGACTCGGCACGACGTAACGTACACAACAATAGTCTCTCGGAGTCACCTAGTGCAG  4080 fluorescence intensity (a.u.)
27. TGACATGTTCCATGGGATGGGCCGCCGACTCACCCAACCGCGGAGTCACCTAGTGCAG  3880 fluorescence intensity (a.u.)
28. CAGTAATTGATCCGACTGCTGATTCGATGGCAGTAATCTTCGGAGTCACCTAGTGCAG  3850 fluorescence intensity (a.u.)
29. GCAAAAGAAAATCACCAACTTGCTCACGCAGTCACGCTGCCGGAGTCACCTAGTGCAG  3630 fluorescence intensity (a.u.)
30. TTTATTATGACTTGATTTGTCATCAAATGTTCTTTAAGCACGGAGTCACCTAGTGCAG  3620 fluorescence intensity (a.u.)
31. GAGGAGGGATCCGAGGTGTCACGGCACCGTCCCGTGAGACCGGAGTCACCTAGTGCAG  3610 fluorescence intensity (a.u.)
32. AAAACTCGCGGCTCCCCTGCCTTCCACGTCTGAGAGGCAACGGAGTCACCTAGTGCAG  3580 fluorescence intensity (a.u.)
33. CCGCCTGCCTGTACACGCCGGCGCTTACAGTACACCCTACCGGAGTCACCTAGTGCAG  3580 fluorescence intensity (a.u.)
34. CCCTTTCTTTCATGTTGACCTCGTCACCCAACAACAACAACGGAGTCACCTAGTGCAG  3550 fluorescence intensity (a.u.)
35. ATAAATTTTAAATGCTACAAACCATTGTATCTTGGAACTGCGGAGTCACCTAGTGCAG  3510 fluorescence intensity (a.u.)
36. CGCCTAGCCGGTCTCCGACCCCTCCTCCAAACGCTGTCGCCGGAGTCACCTAGTGCAG  3460 fluorescence intensity (a.u.)
37. CTAGCCGGGACGTGGAGTGCGGCGCATGCAAACATCTGGTCGGAGTCACCTAGTGCAG  3340 fluorescence intensity (a.u.)
38. TTGCCCACGCATGATCCCAAGGAACCTACCCTAGTCCAAGCGGAGTCACCTAGTGCAG  3230 fluorescence intensity (a.u.)
39. TTGATTCTGTATCAATTCTGTACTGGTGATGTATCAGGTTCGGAGTCACCTAGTGCAG  3220 fluorescence intensity (a.u.)
40. CATGCGTATGTATGTATACCAGTATGTGGATCAACTGGCGCGGAGTCACCTAGTGCAG  3200 fluorescence intensity (a.u.)
41. TTATCACGGACGAGGTTAACACGAAAACCACGTGGTTATCCGGAGTCACCTAGTGCAG  3180 fluorescence intensity (a.u.)
42. TAGCATGGAAAATAGTCATTCAATTTCACACATTGTACCACGGAGTCACCTAGTGCAG  3160 fluorescence intensity (a.u.)
